Laboratory results: the supplement of paper PMC8728848
Some of the results follow.

Legend:
Assay in all cases: glycan array binding signal (z-score within array); higher = stronger binding
Settings in all cases: glycan notation: IUPAC condensed, linker removed
Fuc(a1-2)Gal = target: Fuc(a1-2)Gal
Method in brief: (§1)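 Arrays were curated from the Consortium for Functional Glycomics database, 3228 in total, and kept only where the protein sequence was available. Binding is expressed as a within-array Z-score. This score was averaged across arrays of the same protein sequence at different concentrations or buffers and across linkers, and negative values can be read as non-binding.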

Fuc(a1-2)Gal(b1-3)GalNAc = target: Fuc(a1-2)Gal(b1-3)GalNAc
Method in brief: as §1

[1] = target: Fuc(a1-2)Gal(b1-3)GalNAc(a1-3)[Fuc(a1-2)]Gal(b1-4)Glc
Method in brief: as §1

[2] = target: Fuc(a1-2)Gal(b1-3)GalNAc(a1-3)[Fuc(a1-2)]Gal(b1-4)GlcNAc
Method in brief: as §1

[3] = target: Fuc(a1-2)Gal(b1-3)GalNAc(b1-3)Gal
Method in brief: as §1

[4] = target: Fuc(a1-2)Gal(b1-3)GalNAc(b1-3)Gal(a1-4)Gal(b1-4)Glc
Method in brief: as §1

[5] = target: Fuc(a1-2)Gal(b1-3)GalNAc(b1-4)[Neu5Ac(a2-3)]Gal(b1-4)Glc
Method in brief: as §1

Fuc(a1-2)Gal(b1-3)GlcNAc = target: Fuc(a1-2)Gal(b1-3)GlcNAc
Method in brief: as §1

[6] = target: Fuc(a1-2)Gal(b1-3)GlcNAc(b1-2)Man(a1-3)[Fuc(a1-2)Gal(b1-3)GlcNAc(b1-2)Man(a1-6)]Man(b1-4)GlcNAc(b1-4)GlcNAc
Method in brief: as §1

[7] = target: Fuc(a1-2)Gal(b1-3)GlcNAc(b1-2)Man(a1-3)[Fuc(a1-2)Gal(b1-3)GlcNAc(b1-2)Man(a1-6)]Man(b1-4)GlcNAc(b1-4)[Fuc(a1-6)]GlcNAc
Method in brief: as §1

[8] = target: Fuc(a1-2)Gal(b1-3)GlcNAc(b1-3)Gal(b1-4)Glc
Method in brief: as §1

[9] = target: Fuc(a1-2)Gal(b1-3)GlcNAc(b1-3)GalNAc
Method in brief: as §1

[10] = target: Fuc(a1-2)Gal(b1-3)GlcNAc(b1-3)[Fuc(a1-2)Gal(b1-3)GlcNAc(b1-6)]GalNAc
Method in brief: as §1

[11] = target: Fuc(a1-2)Gal(b1-3)GlcNAc(b1-3)[Gal(b1-4)GlcNAc(b1-6)]Gal(b1-4)Glc
Method in brief: as §1

[12] = target: Fuc(a1-2)Gal(b1-3)GlcNAc(b1-3)[Neu5Ac(a2-6)Gal(b1-4)GlcNAc(b1-6)]Gal(b1-4)Glc
Method in brief: as §1

[13] = target: Fuc(a1-2)Gal(b1-3)GlcNAc6S
Method in brief: as §1

[14] = target: Fuc(a1-2)Gal(b1-3)[Fuc(a1-4)]GlcNAc
Method in brief: as §1

[15] = target: Fuc(a1-2)Gal(b1-3)[Fuc(a1-4)]GlcNAc(b1-2)Man(a1-3)[Fuc(a1-2)Gal(b1-3)[Fuc(a1-4)]GlcNAc(b1-2)Man(a1-3)]Man(b1-4)GlcNAc(b1-4)GlcNAc
Method in brief: as §1

[16] = target: Fuc(a1-2)Gal(b1-3)[Fuc(a1-4)]GlcNAc(b1-2)Man(a1-3)[Fuc(a1-2)Gal(b1-3)[Fuc(a1-4)]GlcNAc(b1-2)Man(a1-6)]Man(b1-4)GlcNAc(b1-4)[Fuc(a1-6)]GlcNAc(b1-4)[Fuc(a1-6)]GlcNAc
Method in brief: as §1

[17] = target: Fuc(a1-2)Gal(b1-3)[Fuc(a1-4)]GlcNAc(b1-3)[Fuc(a1-3)[Gal(b1-4)]GlcNAc(b1-6)]Gal(b1-4)Glc
Method in brief: as §1

[18] = target: Fuc(a1-2)Gal(b1-3)[Fuc(a1-4)]GlcNAc(b1-3)[Gal(b1-4)GlcNAc(b1-6)]Gal(b1-4)Glc
Method in brief: as §1

[19] = target: Fuc(a1-2)Gal(b1-4)Fuc(a1-3)]GlcNAc(b1-2)Man(a1-3)[Fuc(a1-2)Gal(b1-4)[Fuc(a1-3)]GlcNAc(b1-2)Man(a1-6)]Man(b1-4)GlcNAc(b1-4)GlcNAc
Method in brief: as §1

Fuc(a1-2)Gal(b1-4)Glc = target: Fuc(a1-2)Gal(b1-4)Glc
Method in brief: as §1

Fuc(a1-2)Gal(b1-4)Glc6S = target: Fuc(a1-2)Gal(b1-4)Glc6S
Method in brief: as §1

Fuc(a1-2)Gal(b1-4)GlcNAc = target: Fuc(a1-2)Gal(b1-4)GlcNAc
Method in brief: as §1

[20] = target: Fuc(a1-2)Gal(b1-4)GlcNAc(b1-2)Man
Method in brief: as §1

[21] = target: Fuc(a1-2)Gal(b1-4)GlcNAc(b1-2)Man(a1-3)[Fuc(a1-2)Gal(b1-4)GlcNAc(b1-2)Man(a1-6)]Man(b1-4)GlcNAc(b1-4)GlcNAc
Method in brief: as §1

[22] = target: Fuc(a1-2)Gal(b1-4)GlcNAc(b1-2)Man(a1-3)[Fuc(a1-2)Gal(b1-4)GlcNAc(b1-2)Man(a1-6)]Man(b1-4)GlcNAc(b1-4)[Fuc(a1-6)]GlcNAc
Method in brief: as §1

[23] = target: Fuc(a1-2)Gal(b1-4)GlcNAc(b1-2)[Fuc(a1-2)Gal(b1-4)GlcNAc(b1-4)]Man(a1-3)[Fuc(a1-2)Gal(b1-4)GlcNAc(b1-2)Man(a1-6)]Man(b1-4)GlcNAc(b1-4)GlcNAc
Method in brief: as §1

[24] = target: Fuc(a1-2)Gal(b1-4)GlcNAc(b1-3)Gal(b1-4)GlcNAc
Method in brief: as §1

[25] = target: Fuc(a1-2)Gal(b1-4)GlcNAc(b1-3)Gal(b1-4)GlcNAc(b1-2)Man(a1-3)[Fuc(a1-2)Gal(b1-4)GlcNAc(b1-3)Gal(b1-4)GlcNAc(b1-2)Man(a1-6)]Man(b1-4)GlcNAc(b1-4)GlcNAc
Method in brief: as §1

[26] = target: Fuc(a1-2)Gal(b1-4)GlcNAc(b1-3)Gal(b1-4)GlcNAc(b1-3)Gal(b1-4)GlcNAc
Method in brief: as §1

[27] = target: Fuc(a1-2)Gal(b1-4)GlcNAc(b1-3)GalNAc
Method in brief: as §1

[28] = target: Fuc(a1-2)Gal(b1-4)GlcNAc(b1-3)[Fuc(a1-2)Gal(b1-4)GlcNAc(b1-6)]GalNAc
Method in brief: as §1

[29] = target: Fuc(a1-2)Gal(b1-4)GlcNAc(b1-3)[Fuc(a1-3)[Gal(b1-4)]GlcNAc(b1-6)]Gal(b1-4)Glc
Method in brief: as §1

[30] = target: Fuc(a1-2)Gal(b1-4)GlcNAc(b1-6)GalNAc
Method in brief: as §1

[31] = target: Fuc(a1-2)Gal(b1-4)GlcNAc6S
Method in brief: as §1

B1: SP15308C-bot-338-23-338 (Bacteroides ovatus) (protein)
chain: DEWTDEQFKQLISFKTQPGGWGVTDVHVRYANSAKYTYNLPVLVSGSTDNTDDRLVSFSLRDDTLDILNFEKFGNRPELYFRELPQKYYSFPKELTIPAGQSHALLPIEFSLDGLDDSQKWALPLKVCEDANGTYAVNPRKYYRTAVLRPILFNEFSGRFSGSSLLGTMAGESDIKFSSTEIKLNVVTDSIVFFYAGQRTEDYEDRINYKVFLQFTGDKVDSKKDLYKMKIWAENEKLKFNSYSTPTYKVSSEMDATKTYLKHTYIVISDIDFDFVDYTSVPNYEIEYNMKGGLSVSRDLDTRKPDEDQGSDSKWW
- glycan array binding signal (z-score) (Fuc(a1-2)Gal): -0.164
- glycan array binding signal (z-score) (Fuc(a1-2)Gal(b1-3)GalNAc): -0.082
- glycan array binding signal (z-score) [1]: -0.56
- glycan array binding signal (z-score) [2]: -0.687
- glycan array binding signal (z-score) [3]: 0.077
- glycan array binding signal (z-score) [4]: -0.001
- glycan array binding signal (z-score) [5]: -0.142
- glycan array binding signal (z-score) (Fuc(a1-2)Gal(b1-3)GlcNAc): -0.068
- glycan array binding signal (z-score) [6]: 2.27
- glycan array binding signal (z-score) [7]: -0.142
- glycan array binding signal (z-score) [8]: -0.549
- glycan array binding signal (z-score) [9]: -0.215
- glycan array binding signal (z-score) [10]: -0.067
- glycan array binding signal (z-score) [11]: -0.06
- glycan array binding signal (z-score) [12]: -0.409
- glycan array binding signal (z-score) [13]: -0.357
- glycan array binding signal (z-score) [14]: -0.43
- glycan array binding signal (z-score) [15]: -0.066
- glycan array binding signal (z-score) [16]: 0.022
- glycan array binding signal (z-score) [17]: 0.338
- glycan array binding signal (z-score) [18]: -0.476
- glycan array binding signal (z-score) [19]: 0.689
- glycan array binding signal (z-score) (Fuc(a1-2)Gal(b1-4)Glc): 0.084
- glycan array binding signal (z-score) (Fuc(a1-2)Gal(b1-4)Glc6S): -0.339
- glycan array binding signal (z-score) (Fuc(a1-2)Gal(b1-4)GlcNAc): -0.869
- glycan array binding signal (z-score) [20]: -0.503
- glycan array binding signal (z-score) [21]: 0.539
- glycan array binding signal (z-score) [22]: -0.069
- glycan array binding signal (z-score) [23]: -0.436
- glycan array binding signal (z-score) [24]: -0.778
- glycan array binding signal (z-score) [25]: 0.228
- glycan array binding signal (z-score) [26]: -0.544
- glycan array binding signal (z-score) [27]: 1.1
- glycan array binding signal (z-score) [28]: -0.151
- glycan array binding signal (z-score) [29]: -0.2
- glycan array binding signal (z-score) [30]: 0.278
- glycan array binding signal (z-score) [31]: 0.208
